From paper PMC11615823
No constants are given. Whether binding was seen depends on the method and setting. For some of these results: Binding seen in cells or lysates may run through a third protein. Some binding calls cover weakened binding; strength is not graded here.

Protein sequences, listed by entry. Tags and fused reporters are not part of them. Residues count along the entry.
UniProt P55036: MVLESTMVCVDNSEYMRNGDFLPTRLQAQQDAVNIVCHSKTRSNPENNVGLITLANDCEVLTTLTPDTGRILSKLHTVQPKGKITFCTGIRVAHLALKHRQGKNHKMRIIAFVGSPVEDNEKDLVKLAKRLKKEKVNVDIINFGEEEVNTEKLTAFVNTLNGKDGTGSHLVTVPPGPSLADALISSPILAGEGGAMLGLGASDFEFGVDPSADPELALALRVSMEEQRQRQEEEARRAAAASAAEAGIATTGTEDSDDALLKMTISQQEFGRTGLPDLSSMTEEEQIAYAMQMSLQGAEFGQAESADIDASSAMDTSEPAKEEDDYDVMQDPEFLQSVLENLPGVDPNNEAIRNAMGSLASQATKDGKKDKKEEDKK
UniProt P11362, residues 22-822: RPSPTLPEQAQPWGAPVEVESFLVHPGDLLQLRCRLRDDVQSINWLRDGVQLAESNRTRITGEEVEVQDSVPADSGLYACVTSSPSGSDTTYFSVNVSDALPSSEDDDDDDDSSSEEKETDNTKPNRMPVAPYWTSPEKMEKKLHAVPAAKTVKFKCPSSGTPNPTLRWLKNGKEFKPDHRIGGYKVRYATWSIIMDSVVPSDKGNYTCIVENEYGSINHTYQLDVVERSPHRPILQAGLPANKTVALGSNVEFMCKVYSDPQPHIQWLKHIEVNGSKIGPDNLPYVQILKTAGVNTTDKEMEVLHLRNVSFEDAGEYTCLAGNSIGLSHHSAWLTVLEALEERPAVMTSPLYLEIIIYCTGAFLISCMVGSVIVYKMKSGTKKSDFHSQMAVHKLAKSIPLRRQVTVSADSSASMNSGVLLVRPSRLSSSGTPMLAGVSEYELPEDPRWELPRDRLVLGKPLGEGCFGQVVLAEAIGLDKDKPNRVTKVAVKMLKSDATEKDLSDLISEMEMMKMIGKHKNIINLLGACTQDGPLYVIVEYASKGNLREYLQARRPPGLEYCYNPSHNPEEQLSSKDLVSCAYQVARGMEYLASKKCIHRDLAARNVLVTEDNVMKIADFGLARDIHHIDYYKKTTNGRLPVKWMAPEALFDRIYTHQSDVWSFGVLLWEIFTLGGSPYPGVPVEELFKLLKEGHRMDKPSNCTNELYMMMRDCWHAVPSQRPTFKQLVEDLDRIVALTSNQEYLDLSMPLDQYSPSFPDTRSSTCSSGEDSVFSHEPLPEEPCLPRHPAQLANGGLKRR
UniProt P35916, residues 25-1363: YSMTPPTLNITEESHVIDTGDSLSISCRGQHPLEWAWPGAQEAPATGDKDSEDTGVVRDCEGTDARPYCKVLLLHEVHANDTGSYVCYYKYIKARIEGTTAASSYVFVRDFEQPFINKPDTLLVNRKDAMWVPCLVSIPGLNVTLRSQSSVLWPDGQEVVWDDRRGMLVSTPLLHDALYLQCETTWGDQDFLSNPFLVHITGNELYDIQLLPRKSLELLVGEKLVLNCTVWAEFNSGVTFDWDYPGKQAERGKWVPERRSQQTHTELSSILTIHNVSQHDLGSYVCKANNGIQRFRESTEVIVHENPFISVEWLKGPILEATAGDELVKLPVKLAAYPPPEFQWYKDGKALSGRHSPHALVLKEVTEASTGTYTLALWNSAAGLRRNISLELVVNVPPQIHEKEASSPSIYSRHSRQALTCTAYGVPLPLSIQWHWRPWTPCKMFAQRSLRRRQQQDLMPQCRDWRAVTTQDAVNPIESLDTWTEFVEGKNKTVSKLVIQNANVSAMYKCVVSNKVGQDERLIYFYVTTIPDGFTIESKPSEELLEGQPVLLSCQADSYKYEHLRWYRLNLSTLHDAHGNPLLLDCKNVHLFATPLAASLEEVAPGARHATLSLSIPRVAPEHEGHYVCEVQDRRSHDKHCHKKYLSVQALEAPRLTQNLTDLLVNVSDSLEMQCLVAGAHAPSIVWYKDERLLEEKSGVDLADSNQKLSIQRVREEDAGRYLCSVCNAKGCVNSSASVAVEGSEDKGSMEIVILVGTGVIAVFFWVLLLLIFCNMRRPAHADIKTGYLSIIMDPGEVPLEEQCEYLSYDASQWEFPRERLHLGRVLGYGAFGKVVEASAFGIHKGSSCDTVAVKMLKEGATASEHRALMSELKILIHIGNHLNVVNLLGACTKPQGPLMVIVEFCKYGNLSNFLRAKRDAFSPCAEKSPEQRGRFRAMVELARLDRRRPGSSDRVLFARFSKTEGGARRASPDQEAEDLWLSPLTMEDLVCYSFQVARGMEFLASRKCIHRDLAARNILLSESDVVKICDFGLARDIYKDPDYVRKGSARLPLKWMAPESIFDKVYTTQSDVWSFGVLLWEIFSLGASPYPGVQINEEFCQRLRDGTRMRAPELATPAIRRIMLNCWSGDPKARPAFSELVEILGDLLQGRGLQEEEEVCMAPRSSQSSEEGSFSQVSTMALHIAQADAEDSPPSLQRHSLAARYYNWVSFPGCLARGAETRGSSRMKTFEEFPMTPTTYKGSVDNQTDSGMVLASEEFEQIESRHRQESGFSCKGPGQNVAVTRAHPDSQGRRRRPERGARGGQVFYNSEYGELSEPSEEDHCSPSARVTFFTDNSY

Tests used:
[1] = target: purified GST-MCB1 (human) (UniProt P55036); test: pull-down; GST bead pull-down of purified GST-MCB1 with recombinant p53, FGFR1 or VEGFR3; both purified
endogenous MCB1 = endogenous MCB1 (UniProt P55036); test: co-IP; co-IP of endogenous proteins; cells and precipitating antibody not stated in the text (Figure S8G)

recombinant FGFR1 (from UniProt P11362 22-822) (receptor)
binding [1]: binds

vascular endothelial growth factor receptor 3 (VEGFR3), endogenous (from UniProt P35916 25-1363)
binding (endogenous MCB1): binds

recombinant VEGFR3 (from UniProt P35916 25-1363) (receptor)
binding [1]: binds

fibroblast growth factor receptor 1 (FGFR1), endogenous (from UniProt P11362 22-822)
binding (endogenous MCB1): binds
